# Test results published in PMC10897310.
# Chains of the proteins cited; added tags and fusions are not shown.
# UniProt Q8R4B8: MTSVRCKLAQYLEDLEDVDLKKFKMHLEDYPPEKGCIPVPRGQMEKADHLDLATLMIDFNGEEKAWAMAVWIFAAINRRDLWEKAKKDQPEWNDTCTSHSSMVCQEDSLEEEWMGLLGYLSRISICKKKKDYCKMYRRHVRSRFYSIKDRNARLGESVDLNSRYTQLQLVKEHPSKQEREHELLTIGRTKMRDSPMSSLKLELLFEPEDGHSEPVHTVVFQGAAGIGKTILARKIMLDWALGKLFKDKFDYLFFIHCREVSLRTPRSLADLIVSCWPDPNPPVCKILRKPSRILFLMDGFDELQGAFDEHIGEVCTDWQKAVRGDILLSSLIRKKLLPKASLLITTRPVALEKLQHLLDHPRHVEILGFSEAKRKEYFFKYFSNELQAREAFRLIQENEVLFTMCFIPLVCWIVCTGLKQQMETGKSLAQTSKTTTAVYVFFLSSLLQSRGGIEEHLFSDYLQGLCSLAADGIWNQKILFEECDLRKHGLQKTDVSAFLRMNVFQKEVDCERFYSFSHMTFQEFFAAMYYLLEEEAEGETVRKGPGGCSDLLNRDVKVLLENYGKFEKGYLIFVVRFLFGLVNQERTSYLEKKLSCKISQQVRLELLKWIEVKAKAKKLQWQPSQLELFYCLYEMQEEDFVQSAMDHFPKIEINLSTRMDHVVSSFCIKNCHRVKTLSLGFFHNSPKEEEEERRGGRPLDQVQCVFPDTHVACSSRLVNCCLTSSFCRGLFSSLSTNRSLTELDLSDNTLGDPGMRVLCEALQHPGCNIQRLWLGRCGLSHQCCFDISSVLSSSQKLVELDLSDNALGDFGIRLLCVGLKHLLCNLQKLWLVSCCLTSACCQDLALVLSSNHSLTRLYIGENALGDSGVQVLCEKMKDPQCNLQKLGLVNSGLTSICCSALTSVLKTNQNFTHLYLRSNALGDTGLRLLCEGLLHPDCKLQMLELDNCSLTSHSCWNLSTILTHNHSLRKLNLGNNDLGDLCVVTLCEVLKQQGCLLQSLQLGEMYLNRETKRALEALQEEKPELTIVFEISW
# UniProt Q7Z434: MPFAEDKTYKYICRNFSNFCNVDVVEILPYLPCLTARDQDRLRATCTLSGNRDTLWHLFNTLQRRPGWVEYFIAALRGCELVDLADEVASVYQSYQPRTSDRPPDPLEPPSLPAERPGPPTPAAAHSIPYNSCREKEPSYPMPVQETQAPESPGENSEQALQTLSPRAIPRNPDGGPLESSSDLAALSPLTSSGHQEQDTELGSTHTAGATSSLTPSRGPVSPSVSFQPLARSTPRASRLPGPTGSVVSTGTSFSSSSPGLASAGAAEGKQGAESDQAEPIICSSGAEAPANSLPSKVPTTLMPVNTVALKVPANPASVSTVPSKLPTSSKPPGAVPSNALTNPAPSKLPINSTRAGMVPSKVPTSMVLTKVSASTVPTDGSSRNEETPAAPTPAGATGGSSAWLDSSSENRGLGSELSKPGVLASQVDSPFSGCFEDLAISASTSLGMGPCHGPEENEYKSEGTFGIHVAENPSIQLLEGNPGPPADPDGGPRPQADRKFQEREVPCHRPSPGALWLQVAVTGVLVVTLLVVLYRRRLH
# No constants are given. Whether binding was seen depends on the method and setting. In cells and extracts the contact can be indirect. Some binding calls cover weakened binding; strength is not graded here. For some assays here: Tags and fused reporters may be left off the sequences shown.
# B1: mitochondrial anti-viral-signaling protein (MAVS), endogenous in HL-1 cardiomyocytes (protein, UniProt Q8VCF0 1-503)
# chain: MTFAEDKTYKYIRDNHSKFCCVDVLEILPYLSCLTASDQDRLRASYRQIGNRDTLWGLFNNLQRRPGWVEVFIRALQICELPGLADQVTRVYQSYLPPGTSLRSLEPLQLPDFPAAVSGPSAFAPGHNIPDHGLRETPSCPKPVQDTQPPESPVENSEQLLQTNSGAVARMSGGSLIPSPNQQALSPQPSREHQEQEPELGGAHAANVASVPIATYGPVSPTVSFQPLPRTALRTNLLSGVTVSALSADTSLSSSSTGSAFAKGAGDQAKAATCFSTTLTNSVTTSSVPSPRLVPVKTMSSKLPLSSKSTAAMTSTVLTNTAPSKLPSNSVYAGTVPSRVPASVAKAPANTIPPERNSKQAKETPEGPATKVTTGGNQTGPNSSIRSLHSGPEMSKPGVLVSQLDEPFSACSVDLAISPSSSLVSEPNHGPEENEYSSFRIQVDESPSADLLGSPEPLATQQPQEEEEHCASSMPWAKWLGATSALLAVFLAVMLYRSRRLAQ
# B2: MAVS, endogenous in NMCMs (protein, UniProt Q8VCF0 1-503)
# chain: B1 chain
# B3: Flag-tagged MARCH2 in NMCMs (enzyme, UniProt Q9P0N8 1-246)
# chain: MTTGDCCHLPGSLCDCSGSPAFSKVVEATGLGPPQYVAQVTSRDGRLLSTVIRALDTPSDGPFCRICHEGANGECLLSPCGCTGTLGAVHKSCLEKWLSSSNTSYCELCHTEFAVEKRPRPLTEWLKDPGPRTEKRTLCCDMVCFLFITPLAAISGWLCLRGAQDHLRLHSQLEAVGLIALTIALFTIYVLWTLVSFRYHCQLYSEWRKTNQKVRLKIREADSPEGPQHSPLAAGLLKKVAEETPV
# B4: MARCH2, endogenous in NMCMs (enzyme, UniProt Q99M02 1-246)
# chain: MTTGDCCHLPGSLCDCSSSPAFSKVVEATGLGPPQYVAQVTSRDGRLLSTVIRALDSQSDCPFCRICHEGANGENLLSPCGCTGTLGAVHKSCLEKWLSSSNTSYCELCHTEFAVEKRPRPLTEWLKDPGPRTEKRTLCCDMVCFVFITPLAAISGWLCLRGAQDHLRLHSRLEAVGLIALTIALFTIYVLWTLVSFRYHCQLYSEWRKTNQKVRLKIREADGSEDPHHSLLATGLLKKVAEETPV
# B5: MAVS, endogenous (cells of Supplementary Fig. S11a not named) (protein, UniProt Q8VCF0 1-503)
# chain: B1 chain
# Assays:
# [1] = biological target: T1, mitochondrial anti-viral-signaling protein (MAVS), endogenous in HL-1 cardiomyocytes (mouse (endogenous in HL-1)) (UniProt Q8VCF0); assay: co-IP; NLRP3 and MAVS in HL-1 cardiomyocytes in the presence or absence of si-PGAM5 under MCM + H/R treatment
# T1 sequence: B1 chain
# [2] = biological target: T2, MAVS, endogenous in NMCMs (mouse (endogenous in NMCMs)) (UniProt Q8VCF0); assay: co-IP; NLRP3 and MAVS in NMCMs with or without PGAM5 knockdown under MCM + H/R treatment
# T2 sequence: B1 chain
# [3] = biological target: T3, HA-PGAM5 in HL-1 cardiomyocytes (human) (UniProt Q96HS1); assay: co-IP; HL-1 cardiomyocytes expressing Flag-tagged MAVS and HA-PGAM5; HA-PGAM5 immune complexes blotted for Flag-MAVS
# T3 sequence: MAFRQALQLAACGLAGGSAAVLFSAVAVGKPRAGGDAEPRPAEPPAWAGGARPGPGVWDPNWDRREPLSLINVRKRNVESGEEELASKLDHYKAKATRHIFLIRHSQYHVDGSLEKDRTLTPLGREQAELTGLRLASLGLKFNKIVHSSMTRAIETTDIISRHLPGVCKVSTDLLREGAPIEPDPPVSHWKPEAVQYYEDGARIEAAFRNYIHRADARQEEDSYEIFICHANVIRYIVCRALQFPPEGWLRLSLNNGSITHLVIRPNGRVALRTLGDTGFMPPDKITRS
# [4] = biological target: T4, PGAM5, endogenous in HL-1 cardiomyocytes (mouse (endogenous in HL-1)) (UniProt Q8BX10); assay: co-IP; endogenous PGAM5 and MAVS in HL-1 cardiomyocytes with or without MCM + H/R treatment
# T4 sequence: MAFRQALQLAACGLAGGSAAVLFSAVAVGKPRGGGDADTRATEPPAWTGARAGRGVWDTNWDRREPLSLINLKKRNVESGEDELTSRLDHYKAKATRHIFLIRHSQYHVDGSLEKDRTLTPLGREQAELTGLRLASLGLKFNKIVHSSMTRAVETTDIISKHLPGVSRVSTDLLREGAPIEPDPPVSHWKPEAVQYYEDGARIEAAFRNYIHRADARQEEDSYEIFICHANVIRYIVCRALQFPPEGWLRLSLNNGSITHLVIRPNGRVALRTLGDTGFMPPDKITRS
# [5] = biological target: T5, PGAM5, endogenous in NMCMs (mouse (endogenous in NMCMs)) (UniProt Q8BX10); assay: co-IP; endogenous PGAM5 and MAVS in NMCMs with or without MCM + H/R treatment
# T5 sequence: T4 sequence
# [6] = biological target: T6, HA-tagged PGAM5 in NMCMs (human) (UniProt Q96HS1); assay: co-IP; NMCMs transfected with PGAM5-HA or control vector along with MARCH2-Flag; IP with anti-HA, blots with anti-Flag and anti-HA; NP-40 lysis buffer, protein A/G agarose, 4 °C
# T6 sequence: T3 sequence
# [7] = biological target: T5, PGAM5, endogenous in NMCMs (mouse (endogenous in NMCMs)); assay: co-IP; endogenous MARCH2 and PGAM5 in NMCMs; control IgG; NP-40 lysis buffer
# [8] = biological target: T7, PGAM5, endogenous (cells of Supplementary Fig. S11a not named) (UniProt Q8BX10); assay: co-IP; endogenous proteins, IP with anti-PGAM5 or scramble IgG; cells not named
# T7 sequence: T4 sequence
molecule,measurement,setting,value
"NLRP3, endogenous in HL-1 cardiomyocytes (from UniProt Q8R4B8 1-1033)",binding,[1],binds
"NLRP3, endogenous in NMCMs (from UniProt Q8R4B8 1-1033)",binding,[2],binds
Flag-tagged MAVS in HL-1 cardiomyocytes (from UniProt Q7Z434 1-540),binding,[3],binds
B1,binding,[4],binds
B2,binding,[5],binds
B3,binding,[6],binds
B4,binding,[7],binds
B5,binding,[8],binds
